The source of these data is article PMC6178623.

Protein sequences, listed by entry. Tags and fused reporters are not part of them. Lines headed by an entry give the natural chain unless they say otherwise; changes in a name come on top. Chains listed by the source or under a name are the forms on record and can include a tag or linker. Residues count along the entry.
UniProt O95793: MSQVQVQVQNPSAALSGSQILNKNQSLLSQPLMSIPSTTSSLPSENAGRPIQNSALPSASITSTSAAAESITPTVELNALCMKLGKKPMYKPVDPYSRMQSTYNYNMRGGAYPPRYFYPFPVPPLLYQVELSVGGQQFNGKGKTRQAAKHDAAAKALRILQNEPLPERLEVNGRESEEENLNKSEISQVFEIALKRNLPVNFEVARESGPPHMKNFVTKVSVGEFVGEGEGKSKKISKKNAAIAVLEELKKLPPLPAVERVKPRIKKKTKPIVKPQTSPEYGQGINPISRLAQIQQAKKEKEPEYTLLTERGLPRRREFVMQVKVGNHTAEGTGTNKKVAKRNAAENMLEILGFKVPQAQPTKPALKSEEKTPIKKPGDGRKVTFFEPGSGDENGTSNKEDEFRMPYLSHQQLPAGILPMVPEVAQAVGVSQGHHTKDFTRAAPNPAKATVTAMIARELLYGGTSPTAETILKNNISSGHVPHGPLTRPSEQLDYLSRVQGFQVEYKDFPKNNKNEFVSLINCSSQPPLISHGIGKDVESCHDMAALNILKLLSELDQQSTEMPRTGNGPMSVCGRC
Flag-tagged Staufen1 (STAU1-Flag): residues 82-577 of O95793
UniProt Q05323: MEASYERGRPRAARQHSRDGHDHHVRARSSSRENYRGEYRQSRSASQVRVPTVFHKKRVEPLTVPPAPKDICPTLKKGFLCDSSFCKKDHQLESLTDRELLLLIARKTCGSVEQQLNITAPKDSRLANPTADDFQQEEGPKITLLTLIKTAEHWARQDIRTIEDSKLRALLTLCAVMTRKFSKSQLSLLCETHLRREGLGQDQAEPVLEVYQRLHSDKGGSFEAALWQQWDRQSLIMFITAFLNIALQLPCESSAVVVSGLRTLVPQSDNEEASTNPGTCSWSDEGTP
UniProt P18272: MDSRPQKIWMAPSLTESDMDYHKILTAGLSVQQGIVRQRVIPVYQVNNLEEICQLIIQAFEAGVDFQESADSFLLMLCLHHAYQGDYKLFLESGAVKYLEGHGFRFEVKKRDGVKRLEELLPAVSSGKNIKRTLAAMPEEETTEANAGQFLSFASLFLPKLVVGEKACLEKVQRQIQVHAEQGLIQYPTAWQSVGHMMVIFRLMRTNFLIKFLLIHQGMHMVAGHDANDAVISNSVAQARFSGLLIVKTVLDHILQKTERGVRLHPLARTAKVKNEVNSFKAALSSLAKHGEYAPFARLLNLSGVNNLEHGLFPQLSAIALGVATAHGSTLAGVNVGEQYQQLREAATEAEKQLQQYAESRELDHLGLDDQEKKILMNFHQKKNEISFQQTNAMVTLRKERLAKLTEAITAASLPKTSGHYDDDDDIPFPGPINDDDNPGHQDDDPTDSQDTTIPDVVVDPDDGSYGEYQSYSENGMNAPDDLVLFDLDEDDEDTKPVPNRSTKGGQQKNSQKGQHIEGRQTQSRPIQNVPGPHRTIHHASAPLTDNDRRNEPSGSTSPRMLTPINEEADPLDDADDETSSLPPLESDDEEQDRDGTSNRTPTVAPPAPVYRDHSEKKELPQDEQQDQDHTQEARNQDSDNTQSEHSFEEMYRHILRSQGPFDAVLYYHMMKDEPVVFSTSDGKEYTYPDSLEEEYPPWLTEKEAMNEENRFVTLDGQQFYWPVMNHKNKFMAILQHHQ
UniProt Q05127: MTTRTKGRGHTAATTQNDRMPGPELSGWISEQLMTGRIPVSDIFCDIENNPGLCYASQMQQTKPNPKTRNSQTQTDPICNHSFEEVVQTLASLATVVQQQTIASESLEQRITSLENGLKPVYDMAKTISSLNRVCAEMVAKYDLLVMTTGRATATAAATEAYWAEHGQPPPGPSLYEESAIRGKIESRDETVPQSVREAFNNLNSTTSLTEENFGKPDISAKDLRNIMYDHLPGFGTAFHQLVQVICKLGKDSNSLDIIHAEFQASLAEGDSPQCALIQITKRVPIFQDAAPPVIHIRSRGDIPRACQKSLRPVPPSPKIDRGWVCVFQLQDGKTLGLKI
UniProt P19525: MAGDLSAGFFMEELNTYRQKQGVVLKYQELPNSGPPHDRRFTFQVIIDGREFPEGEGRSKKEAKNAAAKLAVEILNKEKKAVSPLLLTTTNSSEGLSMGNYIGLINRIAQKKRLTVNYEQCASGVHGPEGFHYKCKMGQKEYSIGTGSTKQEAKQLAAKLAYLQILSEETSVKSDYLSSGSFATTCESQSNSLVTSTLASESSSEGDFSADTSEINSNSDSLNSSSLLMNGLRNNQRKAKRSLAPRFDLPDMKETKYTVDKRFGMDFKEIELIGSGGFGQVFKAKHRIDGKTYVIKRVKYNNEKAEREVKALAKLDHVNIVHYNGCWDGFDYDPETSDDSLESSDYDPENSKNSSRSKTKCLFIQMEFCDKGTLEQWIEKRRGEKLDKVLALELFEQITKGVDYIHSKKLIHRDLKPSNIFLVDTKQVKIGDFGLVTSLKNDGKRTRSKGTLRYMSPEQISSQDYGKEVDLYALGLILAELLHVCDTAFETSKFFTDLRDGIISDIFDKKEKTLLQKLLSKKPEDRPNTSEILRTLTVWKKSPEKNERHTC

These are yes or no findings as the source states them, for the method shown. Binding seen in cells or lysates may run through a third protein. Some entries that bind do so weakly or less than the wild type.

Experiment [1] concerns the target Flag-tagged Staufen1 (STAU1-Flag) (UniProt O95793). The experiment is described as follows: co-IP.
Experiment [2] has as its target Ebola virus VP30, Flag-tagged (VP30-Flag) (Ebola virus (EBOV)) (UniProt Q05323). The experiment is described as follows: co-IP.
The target in experiment [3] is Ebola virus nucleoprotein (NP) (Ebola virus (EBOV)) (UniProt P18272). The experiment is described as follows: co-sedimentation.
For experiment [4], the target named is Ebola virus VP35 (as expressed for the sucrose gradient) (Ebola virus (EBOV)) (UniProt Q05127). Nature of the experiment: co-sedimentation.

As for “Ebola virus nucleoprotein (NP) (from UniProt P18272 1-739)”, in experiment [1], the binding entry is listed as “binds”.
Consider “endogenous Staufen1 (STAU1) (from UniProt O95793 1-577)”, for which the binding result in experiment [2], in experiment [3] and in experiment [4] was “binds” in each case.
Take “eukaryotic initiation factor 2 (eIF2α) kinase 2 (EIF2AK2)/protein kinase R (PKR) (from UniProt P19525 1-551)”: in experiment [2], the binding result is “binds”.
